Consider one sequence from patent US20230416341A1 (priority 2020, published 2023).

Data set [1] is described as follows: general procedure: Fmoc solid-phase peptide synthesis; 2-chlorotrityl chloride resin (1.22 mmol/g); Rink Amide resin (0.7 mmol/g); Fmoc-Ala-Wang polystyrene resin; PyBOP/NMM; DIC/HOAt. The note with it: coupling step.
Data set [2] is described as follows: Fmoc solid-phase peptide synthesis; Fmoc-Ala-Wang polystyrene resin; PyBOP/NMM; DIC/HOAt. The note with it: whole synthesis, scale 100 μmol.

Turning to “YPESDSAKDDGNQEKEKALLVKVQERSDDGD ? DE ? DNDETTHTPDPSAPTA RPRIREHQA”, in data set [1], the step yield worked out at 55%. In data set [2], this sequence returned an isolated mass of 40.6 mg and an isolated yield of 5.7%.
